# Laboratory results: the supplement of paper PMC8728848
# The other results are listed elsewhere or left out.
# B1: CcfD (Bacteroides vulgatus), A6KYX8 (protein)
# chain: MKYKNYFKSIIYLALGAFTLGSCEDFLDRQEDEKLTFDKIWESRNTTQQYWLNAMSFLPNENGSLQGDTEPYLGASDECTIAYDRQYRWINFGTWNPSQVPYYKMDHYYKGIRECNIFLQNVYKCSDPLVTKDQLDEWYWQTRFARAYYYFLMMRDYGPVFLLGDDLLDFTASTEELYRPRNTWDQCVNYVVSEMTQCAESGVVLQQSDLPAAKWGLATVGTCHAVISRLLLYSARPLFNGNKLYSTVKNPDAPDFPELSGVKLFPELDNTKWQKAAEAAKKLIDNPCYELYRAGNDNPYEDYYGVTHETWNKELIWTDRYNGLFSWGVGTVPTGVAGTAYGAVGPTQALVDAYAMNTGWYPITGYEADGTPIVEPLSGYELASELEKSSWIYPSGGWSNKADFEIEAPNMYKDREPRFYVTVFFGGNQWLHGNSATSISFAKGGNGNKSHDYPKSGYLCNRFYDHKLNSSEGQWGNITFPVFRLGEIYLNFIEAVLECKKNGVALDPSYEALAMEKWADLRKRAGLDPITSIYGQVSTEELIQLCRKERQIELAFERHRYFDTRTWMIATQTDNGKMYGMNTSCPLDAGMKGTETPDGFWERTAFETRVFQNKHYLYPFSQRELDRNKLLTQNYGW
# Experiments:
# Assay in all cases: glycan array binding signal (z-score within array); higher = stronger binding
# Conditions in all cases: glycan notation: IUPAC condensed, linker removed
# [1] = target: GlcNAc(b1-3)Gal(b1-4)GlcNAc(b1-3)Gal(b1-4)GlcNAc(b1-3)Gal(b1-4)GlcNAc(b1-3)Gal(b1-4)GlcNAc(b1-2)[GlcNAc(b1-3)Gal(b1-4)GlcNAc(b1-3)Gal(b1-4)GlcNAc(b1-3)Gal(b1-4)GlcNAc(b1-3)Gal(b1-4)GlcNAc(b1-6)]Man(a1-6)[GlcNAc(b1-3)Gal(b1-4)GlcNAc(b1-3)Gal(b1-4)GlcNAc(b1-3)Gal(b1-4)GlcNAc(b1-3)Gal(b1-4)GlcNAc(b1-2)Man(a1-3)]Man(b1-4)GlcNAc(b1-4)[Fuc(a1-6)]GlcNAc
# Method in brief: (§1)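 The binding signal is a Z-score computed within each array and averaged over linkers. Arrays of the same protein sequence at different concentrations or buffers were also averaged together. Data originate from 3228 arrays in the Consortium for Functional Glycomics database, kept only where the protein sequence was available.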
# [2] = target: GlcNAc(b1-3)Gal(b1-4)GlcNAc(b1-3)Gal(b1-4)GlcNAc(b1-3)GalNAc
# Method in brief: as §1
# [3] = target: GlcNAc(b1-3)Gal(b1-4)GlcNAc(b1-3)GalNAc
# Method in brief: as §1
# [4] = target: GlcNAc(b1-3)Gal(b1-4)GlcNAc(b1-3)[GlcNAc(b1-3)Gal(b1-4)GlcNAc(b1-3)]GalNAc
# Method in brief: as §1
# [5] = target: GlcNAc(b1-3)Gal(b1-4)GlcNAc(b1-6)[Gal(b1-3)]GalNAc
# Method in brief: as §1
# [6] = target: GlcNAc(b1-3)Gal(b1-4)GlcNAc(b1-6)[GlcNAc(b1-3)Gal(b1-3)]GalNAc
# Method in brief: as §1
# [7] = target: GlcNAc(b1-3)Gal(b1-4)GlcNAc(b1-6)[GlcNAc(b1-3)]Gal(b1-4)GlcNAc
# Method in brief: as §1
# [8] = target: GlcNAc(b1-3)GalNAc
# Method in brief: as §1
# [9] = target: GlcNAc(b1-3)Man
# Method in brief: as §1
# [10] = target: GlcNAc(b1-3)[GlcNAc(b1-4)][GlcNAc(b1-6)]GlcNAc
# Method in brief: as §1
# [11] = target: GlcNAc(b1-3)[GlcNAc(b1-6)]Gal(b1-4)GlcNAc
# Method in brief: as §1
# [12] = target: GlcNAc(b1-3)[GlcNAc(b1-6)]GalNAc
# Method in brief: as §1
# [13] = target: GlcNAc(b1-4)Gal(b1-4)GlcNAc
# Method in brief: as §1
# [14] = target: GlcNAc(b1-4)GlcNAc
# Method in brief: as §1
# [15] = target: GlcNAc(b1-4)GlcNAc(b1-4)GlcNAc
# Method in brief: as §1
# [16] = target: GlcNAc(b1-4)GlcNAc(b1-4)GlcNAc(b1-4)GlcNAc(b1-4)GlcNAc
# Method in brief: as §1
# [17] = target: GlcNAc(b1-4)GlcNAc(b1-4)GlcNAc(b1-4)GlcNAc(b1-4)GlcNAc(b1-4)GlcNAc
# Method in brief: as §1
# [18] = target: GlcNAc(b1-4)[GlcNAc(b1-6)]GalNAc
# Method in brief: as §1
# [19] = target: GlcNAc(b1-6)Gal(b1-4)GlcNAc
# Method in brief: as §1
# [20] = target: GlcNAc(b1-6)GalNAc
# Method in brief: as §1
# [21] = target: GlcNAc6S(b1-3)Gal(b1-4)GlcNAc
# Method in brief: as §1
# [22] = target: Kdn(a2-3)Gal(b1-3)GalNAc
# Method in brief: as §1
# [23] = target: Kdn(a2-3)Gal(b1-3)GlcNAc
# Method in brief: as §1
# [24] = target: Kdn(a2-3)Gal(b1-4)Glc
# Method in brief: as §1
# [25] = target: Kdn(a2-3)Gal(b1-4)GlcNAc
# Method in brief: as §1
# [26] = target: Kdn(a2-3)Gal(b1-4)[Fuc(a1-3)]GlcNAc
# Method in brief: as §1
# [27] = target: Kdn(a2-6)Gal(b1-4)GlcNAc
# Method in brief: as §1
# [28] = target: Man(a1-2)Man(a1-2)Man(a1-3)Man
# Method in brief: as §1
# [29] = target: Man(a1-2)Man(a1-2)Man(a1-6)[Man(a1-3)]Man
# Method in brief: as §1
# [30] = target: Man(a1-2)Man(a1-3)Man
# Method in brief: as §1
# [31] = target: Man(a1-2)Man(a1-3)[Man(a1-2)Man(a1-6)]Man
# Method in brief: as §1
# [32] = target: Man(a1-2)Man(a1-3)[Man(a1-2)Man(a1-6)]Man(a1-6)[Man(a1-2)Man(a1-2)Man(a1-3)]Man
# Method in brief: as §1
# [33] = target: Man(a1-2)Man(a1-3)[Man(a1-2)Man(a1-6)]Man(a1-6)[Man(a1-2)Man(a1-2)Man(a1-3)]Man(b1-4)GlcNAc(b1-4)GlcNAc
# Method in brief: as §1
# [34] = target: Man(a1-2)Man(a1-3)[Man(a1-6)]Man(a1-6)[Man(a1-2)Man(a1-3)]Man(b1-4)GlcNAc(b1-4)GlcNAc
# Method in brief: as §1
# [35] = target: Man(a1-2)Man(a1-6)[Man(a1-3)]Man(a1-6)[Man(a1-2)Man(a1-2)Man(a1-3)]Man
# Method in brief: as §1
# [36] = target: Man(a1-2)Man(a1-6)[Man(a1-3)]Man(a1-6)[Man(a1-2)Man(a1-2)Man(a1-3)]Man(b1-4)GlcNAc(b1-4)GlcNAc
# Method in brief: as §1
# [37] = target: Man(a1-3)[Man(a1-6)]Man
# Method in brief: as §1
# [38] = target: Man(a1-3)[Man(a1-6)]Man(a1-6)[Man(a1-2)Man(a1-3)]Man(b1-4)GlcNAc(b1-4)GlcNAc
# Method in brief: as §1
# [39] = target: Man(a1-3)[Man(a1-6)]Man(a1-6)[Man(a1-3)]Man
# Method in brief: as §1
# [40] = target: Man(a1-3)[Man(a1-6)]Man(a1-6)[Man(a1-3)]Man(b1-4)GlcNAc(b1-4)GlcNAc
# Method in brief: as §1
# [41] = target: Man(a1-3)[Man(a1-6)]Man(b1-4)GlcNAc(b1-4)GlcNAc
# Method in brief: as §1
# [42] = target: Man(a1-3)[Man(a1-6)]Man(b1-4)GlcNAc(b1-4)[Fuc(a1-6)]GlcNAc
# Method in brief: as §1
# [43] = target: Man(a1-6)Man
# Method in brief: as §1
# [44] = target: Man(b1-4)GlcNAc
# Method in brief: as §1
# [45] = target: MurNAc(b1-4)GlcNAc
# Method in brief: as §1
# [46] = target: Neu5Ac(a2-3)Gal
# Method in brief: as §1
# [47] = target: Neu5Ac(a2-3)Gal(b1-3)GalNAc
# Method in brief: as §1
# [48] = target: Neu5Ac(a2-3)Gal(b1-3)GalNAc(b1-3)Gal(a1-4)Gal(b1-4)Glc
# Method in brief: as §1
# [49] = target: Neu5Ac(a2-3)Gal(b1-3)GalNAc(b1-4)Gal(b1-4)Glc
# Method in brief: as §1
# [50] = target: Neu5Ac(a2-3)Gal(b1-3)GalNAc(b1-4)[Neu5Ac(a2-3)]Gal(b1-4)Glc
# Method in brief: as §1
# [51] = target: Neu5Ac(a2-3)Gal(b1-3)GalNAc(b1-4)[Neu5Ac(a2-8)Neu5Ac(a2-3)]Gal(b1-4)Glc
# Method in brief: as §1
# [52] = target: Neu5Ac(a2-3)Gal(b1-3)GalNAc6S
# Method in brief: as §1
# [53] = target: Neu5Ac(a2-3)Gal(b1-3)GlcNAc
# Method in brief: as §1
# [54] = target: Neu5Ac(a2-3)Gal(b1-3)GlcNAc(b1-2)Man
# Method in brief: as §1
# [55] = target: Neu5Ac(a2-3)Gal(b1-3)GlcNAc(b1-2)Man(a1-3)[GlcNAc(b1-4)][Neu5Ac(a2-3)Gal(b1-3)GlcNAc(b1-2)Man(a1-6)]Man(b1-4)GlcNAc(b1-4)GlcNAc
# Method in brief: as §1
# [56] = target: Neu5Ac(a2-3)Gal(b1-3)GlcNAc(b1-2)Man(a1-3)[Neu5Ac(a2-3)Gal(b1-3)GlcNAc(b1-2)Man(a1-6)]Man(b1-4)GlcNAc(b1-4)GlcNAc
# Method in brief: as §1
# [57] = target: Neu5Ac(a2-3)Gal(b1-3)GlcNAc(b1-2)[Neu5Ac(a2-3)Gal(b1-3)GlcNAc(b1-4)]Man(a1-6)[Neu5Ac(a2-3)Gal(b1-3)GlcNAc(b1-2)Man(a1-3)]Man(b1-4)GlcNAc(b1-4)GlcNAc
# Method in brief: as §1
# [58] = target: Neu5Ac(a2-3)Gal(b1-3)GlcNAc(b1-3)Gal(b1-3)GlcNAc
# Method in brief: as §1
# [59] = target: Neu5Ac(a2-3)Gal(b1-3)GlcNAc(b1-3)Gal(b1-4)GlcNAc
# Method in brief: as §1
# [60] = target: Neu5Ac(a2-3)Gal(b1-3)GlcNAc(b1-3)GalNAc
# Method in brief: as §1
binder,measurement,setting,value
B1,glycan array binding signal (z-score),[1],0.069
same,glycan array binding signal (z-score),[2],-0.846
same,glycan array binding signal (z-score),[3],-0.754
same,glycan array binding signal (z-score),[4],-0.708
same,glycan array binding signal (z-score),[5],-0.393
same,glycan array binding signal (z-score),[6],-0.322
same,glycan array binding signal (z-score),[7],-0.566
same,glycan array binding signal (z-score),[8],-0.332
same,glycan array binding signal (z-score),[9],-0.81
same,glycan array binding signal (z-score),[10],2.41
same,glycan array binding signal (z-score),[11],-1.08
same,glycan array binding signal (z-score),[12],-0.942
same,glycan array binding signal (z-score),[13],-0.856
same,glycan array binding signal (z-score),[14],-0.663
same,glycan array binding signal (z-score),[15],-0.678
same,glycan array binding signal (z-score),[16],0.186
same,glycan array binding signal (z-score),[17],-0.658
same,glycan array binding signal (z-score),[18],-0.571
same,glycan array binding signal (z-score),[19],-0.307
same,glycan array binding signal (z-score),[20],-0.134
same,glycan array binding signal (z-score),[21],-0.744
same,glycan array binding signal (z-score),[22],1.1
same,glycan array binding signal (z-score),[23],-0.388
same,glycan array binding signal (z-score),[24],1.84
same,glycan array binding signal (z-score),[25],-0.719
same,glycan array binding signal (z-score),[26],0.536
same,glycan array binding signal (z-score),[27],-0.566
same,glycan array binding signal (z-score),[28],-0.017
same,glycan array binding signal (z-score),[29],-0.139
same,glycan array binding signal (z-score),[30],0.257
same,glycan array binding signal (z-score),[31],-0.028
same,glycan array binding signal (z-score),[32],0.333
same,glycan array binding signal (z-score),[33],-0.155
same,glycan array binding signal (z-score),[34],1.94
same,glycan array binding signal (z-score),[35],-0.769
same,glycan array binding signal (z-score),[36],-0.744
same,glycan array binding signal (z-score),[37],0.196
same,glycan array binding signal (z-score),[38],-0.673
same,glycan array binding signal (z-score),[39],-0.83
same,glycan array binding signal (z-score),[40],-0.419
same,glycan array binding signal (z-score),[41],-0.406
same,glycan array binding signal (z-score),[42],0.257
same,glycan array binding signal (z-score),[43],0.145
same,glycan array binding signal (z-score),[44],0.973
same,glycan array binding signal (z-score),[45],0.501
same,glycan array binding signal (z-score),[46],0.526
same,glycan array binding signal (z-score),[47],0.265
same,glycan array binding signal (z-score),[48],0.465
same,glycan array binding signal (z-score),[49],-0.17
same,glycan array binding signal (z-score),[50],2.47
same,glycan array binding signal (z-score),[51],0.44
same,glycan array binding signal (z-score),[52],0.237
same,glycan array binding signal (z-score),[53],-0.465
same,glycan array binding signal (z-score),[54],-0.454
same,glycan array binding signal (z-score),[55],-0.526
same,glycan array binding signal (z-score),[56],-0.18
same,glycan array binding signal (z-score),[57],1.36
same,glycan array binding signal (z-score),[58],2.05
same,glycan array binding signal (z-score),[59],1.43
same,glycan array binding signal (z-score),[60],-0.536

# A run of entries taken from the entries so far:
binder,measurement,setting,value
B1,glycan array binding signal (z-score),[22],1.1
same,glycan array binding signal (z-score),[23],-0.388
same,glycan array binding signal (z-score),[24],1.84
same,glycan array binding signal (z-score),[25],-0.719
same,glycan array binding signal (z-score),[26],0.536
same,glycan array binding signal (z-score),[27],-0.566
same,glycan array binding signal (z-score),[28],-0.017
same,glycan array binding signal (z-score),[29],-0.139
same,glycan array binding signal (z-score),[30],0.257
same,glycan array binding signal (z-score),[31],-0.028
same,glycan array binding signal (z-score),[32],0.333
same,glycan array binding signal (z-score),[33],-0.155
